In patent US11360104B2, “Microbial-based biosensors” (TRUSTEES OF BOSTON UNIVERSITY, priority 2017, dated 2022):
For at least one compound, name, drawing or mass did not settle the structure.

Sequences of proteins named here, by UniProt entry; tags and fusion partners are left off.
UniProt A0A0A1DUF2, entry or part of it: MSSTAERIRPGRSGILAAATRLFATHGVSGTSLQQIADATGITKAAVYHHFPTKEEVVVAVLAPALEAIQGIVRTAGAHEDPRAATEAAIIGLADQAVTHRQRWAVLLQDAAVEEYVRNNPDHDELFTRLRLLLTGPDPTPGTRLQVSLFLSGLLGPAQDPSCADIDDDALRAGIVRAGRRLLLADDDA

Molecular target: PinR (Nocardioides simplex (Pimelobacter simplex), UniProt A0A0A1DUF2)
Experiment: Cross-reactivity assay of steroids using sensor 3
Assay type: biochemical
Conditions: sensor 3, HEPES 1×, 0 to 10 uM of steroids
Protocol: The cross-reactivity of progesterone regarding the different steroids was calculated with the following equation:
Description for a typical experiment, using a molar ratio of QD/TF/DNA=1/4/18.
50 uL of the sensor (QD/TF/DNA) was then splitted in 3×9 centrifuge tubes to which 10 uL of progesterone at the desired concentration is added. […] A 384 well plate was filled with 60 uL of each solution. The fluorescence intensity was monitored on a spectrofluorimeter from 535 nm to 800 nm exciting at 400 nm, equipped with a 450 nm long-pass filter in emission.

Q: Which cross-reactivity does the source give for `C[C@]12CC[C@@H]3c4ccc(O)cc4CC[C@H]3[C@@H]1CCC2=O` [ESN, Estrone] here?
A: No cross-reactivity
